No constants are given. Whether binding was seen depends on the method and setting. Some results given as binding are weak or reduced against the parent protein; the word gives no strength. Values belong to the binder of their own block, whether it stands above or below them.
What was measured:
[1] = target: Kv2.1 N-terminus (amino acids 1-168), in pGBT9 (UniProt P04386); test: yeast two-hybrid (Y190, pGAD10 x pGBT9), β-galactosidase filter assay
[2] = target: Kvβ1C (carboxyl terminal 329 amino acids of the Kvβ1 subfamily), in pGBT9 (UniProt P04386); test: as above

Sequences of proteins named here, by UniProt entry; tags and fusion partners are left off. A change or cut given only in a name is not applied to a line headed by its entry.
UniProt P04386: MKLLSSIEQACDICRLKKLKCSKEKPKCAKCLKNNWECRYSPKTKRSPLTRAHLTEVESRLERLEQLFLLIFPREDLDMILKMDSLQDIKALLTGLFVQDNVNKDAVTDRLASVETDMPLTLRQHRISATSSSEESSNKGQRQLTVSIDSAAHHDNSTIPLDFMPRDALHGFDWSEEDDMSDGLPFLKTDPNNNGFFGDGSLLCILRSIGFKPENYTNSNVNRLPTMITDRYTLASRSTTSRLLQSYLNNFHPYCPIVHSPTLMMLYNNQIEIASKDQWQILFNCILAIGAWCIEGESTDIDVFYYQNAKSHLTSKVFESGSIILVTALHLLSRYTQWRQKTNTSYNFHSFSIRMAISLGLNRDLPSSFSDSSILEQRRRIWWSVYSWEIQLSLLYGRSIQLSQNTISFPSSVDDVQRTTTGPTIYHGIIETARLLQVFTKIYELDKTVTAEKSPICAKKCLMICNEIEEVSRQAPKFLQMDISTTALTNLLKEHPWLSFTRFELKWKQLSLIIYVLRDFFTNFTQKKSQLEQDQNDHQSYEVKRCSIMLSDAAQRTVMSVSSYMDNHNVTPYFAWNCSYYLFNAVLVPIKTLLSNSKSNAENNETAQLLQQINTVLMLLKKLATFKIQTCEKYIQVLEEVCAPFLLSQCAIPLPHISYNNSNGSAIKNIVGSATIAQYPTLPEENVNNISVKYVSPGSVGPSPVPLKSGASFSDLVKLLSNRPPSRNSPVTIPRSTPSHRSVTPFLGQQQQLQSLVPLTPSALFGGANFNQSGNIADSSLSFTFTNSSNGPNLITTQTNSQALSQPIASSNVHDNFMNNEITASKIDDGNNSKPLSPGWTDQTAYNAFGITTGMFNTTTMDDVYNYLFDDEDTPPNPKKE

binding [1]: binds
binding [2]: binds
B1: KChAP (K+ Channel Associated Protein), full length, in pGAD10 (protein, not shown: large carriers)
chain: MKIKELYRRRFPRKTLGPSDLSLLSLPPGTSPVGSPSPLASIPPTLLTPGTLLGPKREVDMHPPLPQPVHPDVTMKPLPFYEVYGELIRPTTLASTSSQRFEEAHFTFALTPQQLQQILTSREVLPGAKCDYTIQVQLRFCLCETSCPQEDYFPPNLFVKVNGKLCPLPGYLPPTKNGAEPKRPSRPINITPLARLSATVPNTIVVNWSSEFGRNYSLSVYLVRQLTAGTLLQKLRAKGIRNPDHSRALIKEKLTADPDSEVATTSLRVSLMCPLGKMRLTVPCRALTCAHLQSFDAALYLQMNEKKPTWTCPVCDKKAPYESLIIDGLFMEILNSCSDCDEIQFMEDGSWCPMKPKKEASEVCPPPGYGLDGLQYSPVQEGNQSENKKRVEVIDLTIESSSDEEDLPPTKKHCPVTSAAIPALPGSKGALTSGHQPSSVLRSPAMGTLGSDFLSSLPLHEYPPAFPLGADIQGLDLFSFLQTESQHYSPSVITSLDEQDTLGHFFQFRGTPPHFLGPLAPTLGSSHRSATPAPAPGRVSSIVAPGSSLREGHGGPLPSGPSLTGCRSDVISLD

binding [1]: binds
binding [2]: binds
B2: KChAP-Y (partial clone of KChAP from W310 to the C-terminus), in pGAD10 (protein, not shown: large carriers)
chain: WTCPVCDKKAPYESLIIDGLFMEILNSCSDCDEIQFMEDGSWCPMKPKKEASEVCPPPGYGLDGLQYSPVQEGNQSENKKRVEVIDLTIESSSDEEDLPPTKKHCPVTSAAIPALPGSKGALTSGHQPSSVLRSPAMGTLGSDFLSSLPLHEYPPAFPLGADIQGLDLFSFLQTESQHYSPSVITSLDEQDTLGHFFQFRGTPPHFLGPLAPTLGSSHRSATPAPAPGRVSSIVAPGSSLREGHGGPLPSGPSLTGCRSDVISLD

Source: patent US20030049646A1
